From PubChem BioAssay (NCATS)
Inconclusive means that the source gave no clear call. Such entries were picked first, then a sample of the others. Potencies of inconclusive entries are doubtful fits and often do not repeat. Active and inactive are the calls of the source. Calls follow the shape of the dose curve; as a rule, active = well fitted curve in the direction sought with a large enough effect; inconclusive = small, poorly fitted or top-dose-only effect, or another doubt; inactive = no such curve, though single readings can be large; an effect the other way counts as inactive or inconclusive.

Key:
[1] = Quantitative highthroughput screen to assess conditional lethalithy of NOMO1 cells grown in RPMI1640 with untreated serum (RPMI+s) (AID 1963876); details: NOMO1 AML cells in RPMI+serum, CellTiter-Glo viability, 48 h; viability: at 45.8 µM (top of the series); also: nearly all actives have a fitted effect of over 35% in size
In short: (§1)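 Each medium arm—HPLM with 10% dialyzed FBS, or RPMI1640 with 5 mM glucose and 10% untreated or dialyzed FBS—was screened against an 11-point, 3-fold compound titration for 48 h at 37 °C, with CellTiter-Glo luminescence as endpoint.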

[2] = Quantitative highthroughput screen to assess conditional lethalithy of NOMO1 cells grown in RPMI1640 with dialyzed fetal bovine serum (RPMI+ds) (AID 1963877); also: nearly all actives have a fitted effect of over 30% in size
In short: as §1

[3] = Quantitative highthroughput screen to assess conditional lethalithy of NOMO1 cells grown in Human Plasma-Like Medium with dialyzed fetal bovine serum (HPLM+ds) (AID 1963878); details: NOMO1 AML cells in HPLM+ds, CellTiter-Glo viability, 48 h; viability: at 45.8 µM (top of the series); also: nearly all actives have a fitted effect of over 35% in size
In short: as §1

[4] = Quantitative highthroughput screen to assess conditional lethalithy of P12 Ichikawa cells grown in Human Plasma-Like Medium with dialyzed fetal bovine serum (HPLM+ds) (AID 1963879); details: Potency: viability; also: nearly all actives have a fitted effect of over 35% in size
In short: as §1

[5] = Quantitative highthroughput screen to assess conditional lethalithy of P12 Ichikawa cells grown in RPMI1640 with dialyzed fetal bovine serum (RPMI+ds) (AID 1963880); details: Potency: P12-Ichikawa viability; also: nearly all actives have a fitted effect of over 35% in size
In short: as §1

[6] = Quantitative highthroughput screen to assess conditional lethalithy of P12 Ichikawa cells grown in RPMI1640 with untreated serum (RPMI+s) (AID 1963881); details: Potency: viability; also: nearly all actives have a fitted effect of over 35% in size
In short: as §1

[7] = Quantitative highthroughput screen to assess conditional lethalithy of SEM cells grown in Human Plasma-Like Medium with dialyzed fetal bovine serum (HPLM+ds) (AID 1963882); also: nearly all actives have a fitted effect of over 35% in size
In short: as §1

[8] = Quantitative highthroughput screen to assess conditional lethalithy of SEM cells grown in RPMI1640 with unreated serum (RPMI+s) (AID 1963883); details: SEM B-ALL cells, CellTiter-Glo viability, 48 h; viability: at 45.8 µM (top of the series); also: nearly all actives have a fitted effect of over 35% in size
In short: as §1

[9] = Quantitative highthroughput screen to assess conditional lethalithy of SEM cells grown in RPMI1640 with dialyzed fetal bovine serum (RPMI+ds) (AID 1963884); details: SEM B-ALL cells, RPMI+dialyzed FBS, CellTiter-Glo viability, 48 h; viability: at 45.8 µM (top of the series); also: nearly all actives have a fitted effect of over 35% in size
In short: as §1

[10] = Viability qHTS for spleen associated tyrosine kinase inhibitor (SYKi) drug resistant MV4-11 cells (AID 1963824); also: nearly all actives have a fitted effect of over 35% in size
In short: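 CellTiter-Glo luminescence, read 10 min after reagent addition, reports viability after a 72 hr compound exposure. Cells are an MV4-11 line made resistant to SYK inhibition, seeded at 500 per well onto compound-containing plates.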

[11] = Cellular viability qHTS for adrenocortical cancer (ACC) cell line NCI-H295R (AID 1963990); details: CellTiter-Glo ATP luminescence, 48 h; series mostly up to 46.1 µM; also: nearly all actives have a fitted effect of over 60% in size
In short: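 Luminescent ATP read-out (CellTiter-Glo, 20 min RT) after 48 h drug exposure of NCI-H295R cells; a titration up to 46 uM final. Data normalized to doxorubicin (100% inhibition) and DMSO (0%); 4-parameter fit gives IC50, max response.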

[12] = Cellular viability qHTS for adrenocortical cancer (ACC) cell line SW-13 (AID 1963989); details: SW-13 ACC cells viability, CellTiter-Glo, 48 h; activity (max response): stronger effect = lower value; also: nearly all actives have a fitted effect of over 65% in size
In short: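 SW-13 cells in ITS-supplemented serum-free DMEM were plated overnight, then exposed for 48 h at 37C to compound titrations (up to 46 uM final). Viability was read by CellTiter-Glo luminescence; four-parameter logistic fits gave IC50 and efficacy.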

Measured: Potency
Potency is read from the fitted curve at half-maximal effect.

Cc1c(CN2CCN(C(=O)C(C)C)CC2)sc2c(N3CCOCC3)nc(-c3cnc(N)nc3)nc12
inconclusive: [1] 0.833 µM [cytotoxic, full curve] | [2] 0.235 µM [cytotoxic, full curve] | [3] 0.235 µM [cytotoxic, full curve] | [4] 0.469 µM [cytotoxic, full curve] | [5] 0.296 µM [cytotoxic, full curve] | [6] 0.235 µM [cytotoxic, full curve] | [7] 0.296 µM [cytotoxic, full curve] | [8] 0.469 µM [cytotoxic, full curve] | [9] 0.372 µM [cytotoxic, full curve, poor fit]

O=c1[nH]c(=O)n([C@H]2C[C@H](O)[C@@H](CO)O2)cc1I
inconclusive: [10] 10.6 µM [cytotoxic, partial curve] | [11] 29.1 µM [cytotoxic, single point]

Cc1nn(Cc2ccccc2Cl)c(C)c1CN(C)CC(O)COc1ccc(Cl)cc1 (configuration not stated)
inconclusive: [1] 26.4 µM [cytotoxic, single point] | [2] 20.9 µM [cytotoxic, partial curve] | [3] 26.4 µM [cytotoxic, single point] | [4] 29.6 µM [cytotoxic, single point] | [5] 37.2 µM [cytotoxic, single point] | [6] 26.4 µM [cytotoxic, single point] | [7] 9.35 µM [cytotoxic, full curve] | [8] 8.33 µM [cytotoxic, full curve] | [9] 8.33 µM [cytotoxic, full curve]

Cc1cccc(-c2[nH]c(CNc3ccccc3F)nc2-c2ccc3ncnn3c2)n1
inconclusive: [10] 7.31 µM [cytotoxic, partial curve]
inactive: [11]

CC(C)=CCCC(C)=CCCC(C)=CCSc1ccccc1C(=O)O
inconclusive: [1] 16.6 µM [cytotoxic, partial curve] | [2] 5.26 µM [cytotoxic, partial curve] | [3] 13.2 µM [cytotoxic, partial curve] | [4] 16.6 µM [cytotoxic, partial curve] | [5] 5.9 µM [cytotoxic, partial curve] | [6] 5.9 µM [cytotoxic, partial curve]
active: [7] 6.62 µM

CN1[C@@H]2CCC[C@H]1CC(NC(=O)c1nn(C)c3ccccc13)C2 (some centres not stated)
inactive: [10] | [11]

Cc1cc2c(C(C)C)c(O)c(O)c(C=O)c2c(O)c1-c1c(C)cc2c(C(C)C)c(O)c(O)c(C=O)c2c1O
inconclusive: [1] 29.6 µM [cytotoxic, single point] | [2] 26.4 µM [cytotoxic, single point] | [3] 26.4 µM [cytotoxic, single point] | [4] 37.2 µM [cytotoxic, single point] | [5] 33.2 µM [cytotoxic, single point] | [6] 37.2 µM [cytotoxic, single point] | [7] 37.2 µM [cytotoxic, single point] | [8] 29.6 µM [cytotoxic, single point] | [9] 26.4 µM [cytotoxic, single point]

COCC(=O)NCC=Cc1ccc2ncnc(Nc3ccc(Oc4ccc(C)nc4)c(C)c3)c2c1
inconclusive: [1] 0.372 µM [cytotoxic, full curve] | [2] 3.72 µM [cytotoxic, partial curve] | [3] 0.332 µM [cytotoxic, full curve] | [4] 26.4 µM [cytotoxic, single point] | [5] 16.6 µM [cytotoxic, partial curve] | [6] 16.6 µM [cytotoxic, partial curve] | [7] 29.6 µM [cytotoxic, single point] | [8] 33.2 µM [cytotoxic, single point] | [9] 37.2 µM [cytotoxic, single point]

CO[C@@H](C(=O)N1Cc2[nH]nc(NC(=O)c3ccc(N4CCN(C)CC4)cc3)c2C1)c1ccccc1
inconclusive: [2] 0.0743 µM [cytotoxic, full curve] | [4] 0.105 µM [cytotoxic, full curve] | [5] 0.0833 µM [cytotoxic, full curve] | [6] 0.0833 µM [cytotoxic, full curve] | [11] 3.16 µM [cytotoxic, full curve]
active: [1] 0.148 µM | [3] 0.0469 µM

NS(=O)(=O)OC[C@@H]1C[C@@H](n2ccc3c(N[C@H]4CCc5ccccc54)ncnc32)C[C@H]1O
active: [1] 0.526 µM | [2] 0.526 µM | [3] 0.59 µM | [5] 1.66 µM | [6] 2.09 µM

CC[C@H](CC[C@@H](C)[C@H]1CC[C@H]2[C@@H]3CC=C4C[C@@H](O)CC[C@]4(C)[C@@H]3CC[C@]12C)C(C)C
inconclusive: [1] 29.6 µM [cytotoxic, single point] | [2] 18.7 µM [cytotoxic, partial curve] | [3] 10.5 µM [cytotoxic, partial curve] | [4] 37.2 µM [cytotoxic, partial curve, poor fit]
inactive: [6]

Cc1cccc(-c2[nH]c(C(C)(C)C)nc2-c2ccc3nccnc3c2)n1
inconclusive: [2] 20.9 µM [cytotoxic, partial curve] | [3] 33.2 µM [cytotoxic, single point] | [4] 37.2 µM [cytotoxic, single point] | [6] 37.2 µM [cytotoxic, partial curve, poor fit] | [12] 3.98 µM [cytotoxic, single point]
active: [9] 18.7 µM
inactive: [1] | [5] | [11]

COc1cc([C@@H]2c3cc4c(cc3[C@@H](O[C@@H]3O[C@@H]5CO[C@@H](c6cccs6)O[C@@H]5[C@H](O)[C@@H]3O)[C@H]3COC(=O)[C@H]23)OCO4)cc(OC)c1O
inconclusive: [1] 1.05 µM [cytotoxic, full curve, poor fit] | [2] 1.32 µM [cytotoxic, full curve, poor fit] | [3] 1.05 µM [cytotoxic, full curve, poor fit] | [4] 0.935 µM [cytotoxic, full curve, poor fit] | [7] 1.05 µM [cytotoxic, full curve, poor fit] | [9] 0.833 µM [cytotoxic, full curve, poor fit]

NC(=O)c1cnc(N[C@@H]2CCCC[C@@H]2N)nc1Nc1cccc(-n2nccn2)c1
inconclusive: [1] 18.6 µM [cytotoxic, partial curve] | [2] 18.6 µM [cytotoxic, partial curve] | [3] 18.6 µM [cytotoxic, partial curve] | [4] 37.1 µM [cytotoxic, single point] | [6] 13.2 µM [cytotoxic, partial curve, poor fit] | [8] 10.5 µM [cytotoxic, partial curve] | [9] 10.5 µM [cytotoxic, partial curve] | [12] 31.6 µM [cytotoxic, single point]

CC1(C)OC2CC3C4CC(F)C5=CC(=O)C=CC5(C)C4C(O)CC3(C)[C@]2(C(=O)CO)O1 (some centres not stated)
inconclusive: [4] 0.166 µM [cytotoxic, full curve] | [6] 0.0833 µM [cytotoxic, full curve] | [8] 0.166 µM [cytotoxic, full curve]
inactive: [1] | [2] | [3]

CN(C)C(=O)COC(=O)Cc1ccc(OC(=O)c2ccc(N=C(N)N)cc2)cc1
inactive: [11]
inconclusive: [1] 33.2 µM [cytotoxic, single point] | [2] 23.5 µM [cytotoxic, single point] | [5] 8.33 µM [cytotoxic, partial curve] | [6] 14.8 µM [cytotoxic, partial curve, poor fit] | [7] 33.2 µM [cytotoxic, single point] | [8] 20.9 µM [cytotoxic, single point] | [9] 33.2 µM [cytotoxic, single point]
active: [3] 20.9 µM

No new results follow: 2 of the compounds above.
NS(=O)(=O)OC[C@@H]1C[C@@H](n2ccc3c(N[C@H]4CCc5ccccc54)ncnc32)C[C@H]1O
active: [1] 0.526 µM | [2] 0.526 µM | [3] 0.59 µM | [5] 1.66 µM | [6] 2.09 µM

CC[C@H](CC[C@@H](C)[C@H]1CC[C@H]2[C@@H]3CC=C4C[C@@H](O)CC[C@]4(C)[C@@H]3CC[C@]12C)C(C)C
inconclusive: [1] 29.6 µM [cytotoxic, single point] | [2] 18.7 µM [cytotoxic, partial curve] | [3] 10.5 µM [cytotoxic, partial curve] | [4] 37.2 µM [cytotoxic, partial curve, poor fit]
inactive: [6]

(next part)

CC(C)n1c(C=C[C@H](O)C[C@H](O)CC(=O)O)c(-c2ccc(F)cc2)c2ccccc21
active: [5] 4.69 µM | [6] 4.69 µM
inconclusive: [1] 18.7 µM [cytotoxic, partial curve] | [2] 20.9 µM [cytotoxic, partial curve] | [3] 11.8 µM [cytotoxic, partial curve] | [7] 16.6 µM [cytotoxic, partial curve] | [8] 14.8 µM [cytotoxic, partial curve] | [9] 18.7 µM [cytotoxic, partial curve]
